In patent publication US20170168078A1:
These are yes or no findings as the source states them, for the method shown.

B1: Monoclonal antibody 9F3.H9.H3.H3.B5.G2 (antibody, mouse IgG2a, V domains shown)
VH: ESGPGLVRPSQSLSLTCSVTGYSITSGYYWNWIRQFPGSRLEWMGYIKSDGSNNYNPSLKNRISITRDTSKNQFFLKLNSVTTEDTATYFCTREWKAMDYWGQGTSVTVSS
VL: PAIMSASPGEKVTMTCRASSTVSYSYLHWYQQKSGASPQLWIYGTSNLASGVPARFSGSGSGTSYSLTISSVEAEDAATYYCQQYSGYPLTFGAGTKLELKR
B2: Monoclonal antibody 24F12.B1 (antibody, mouse IgG1, V domains shown)
VH: SGGGLVRPGGSLKLSCAASGFTFSSYAMSWVRQSPEKRLEWVAEIGSGGSYTYYPDTVTGRFTISRDNAKSTLYLEMSSLRSEDTAIYYCARETTAGYFDYWGQGTTLTVSS
VL: TSSLSASLGDRVTISCSASQGINNFLNWYQQKPDGTVKLLIYYTSSLHSGVPSRFSGSGSGTDYSLTISNLEPEDIAIYYCQHFSKLPWTFGGGTKLEIKR
B3: Monoclonal antibody 26B3.F2 (antibody, mouse IgG1, V domains shown)
VH: GPELVKPGASVKISCKASDYSFTGYFMNWVMQSHGKSLEWIGRIFPYNGDTFYNQKFKGRATLTVDKSSSTAHMELRSLASEDSAVYFCARGTHYFDYWGQGTTLTVSS
VL: PASLSASVGETVTITCRTSENIFSYLAWYQQKQGISPQLLVYNAKTLAEGVPSRFSGSGSGTQFSLKINSLQPEDFGSYYCQHHYAFPWTFGGGSKLEIKR
B4: Monoclonal antibody 19D4.B7 (antibody, mouse IgG2a, V domains shown)
VH: GAELVKPGASVKLSCTASGFNIKHPYMHWVKQRPDQGLEWIGRIDPANGNTKYDPKFQGKATITADTSSNTAYLQLSSLTSEDTAVYYCGREEVADYTMDYWGQGTSVTVSS
VL: PASLAVSLGQRATISCRASESVDTYGNNFIHWYQQKPGQPPKLLIYLASNLESGVPARFSGSGSRTDFTLTIDPVEADDAATYYCQQNNGDPWTFGGGTKLEIKR

molecular target: purified recombinant human FRΔ (human); assay: western blot of 0.5 µg purified protein per lane, reduced and nonreduced, SDS-PAGE

binding | Binder
no binding (tested: 1 µg/mL) | B1
no binding (tested: 1 µg/mL) | B2
no binding (tested: 1 µg/mL) | B3
no binding (tested: 1 µg/mL) | B4
